Results are given in words; binding and its absence hold for the method and conditions named. Some results given as binding are weak or reduced against the parent protein; the word gives no strength.

By UniProt entry, the sequences of proteins in these tests, tags left out. Residues count along the entry.
UniProt Q15116, residues 25-167: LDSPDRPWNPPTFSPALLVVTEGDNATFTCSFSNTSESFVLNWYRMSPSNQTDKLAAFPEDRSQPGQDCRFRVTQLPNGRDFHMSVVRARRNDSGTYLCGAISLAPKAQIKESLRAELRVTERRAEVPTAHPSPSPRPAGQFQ

For test [1], the target named is PD-1 (antigen of the Octet affinity measurements of Example 9 and of the affinities quoted afterwards) (UniProt Q15116). The experiment in a line: Octet. On the technique in general: Biolayer interferometry detects binding as a change in optical thickness at a sensor tip.
Test [2] shares this target. The experiment in a line: Octet (legend of FIG. 66).

B1: mAb C[PD-1] H1.19_L1 (antibody, name in Kabat numbering, V domains shown)
VH: EVQLVESGGGLVQPGGSLRLSCAASGFTFSSLGMHWVRQAPGKGLEWVSYISSGSSIIYYADSVKGRFTISRDNAKNSLYLQMNSLRAEDTAVYYCARGGRLVWSPDYWGQGTLVTVSS
VL: DIVMTQSPDSLAVSLGERATINCKSSQSLLNSGNQKNYLTWYQQKPGQPPKLLIYWASTRESGVPDRFTGSGSGTDFTLTISSLQAEDVAVYYCQNDYSYPFTFGSGTKLEIK
With B1, the binding result in test [1] and in test [2] was “binds” in each case.
